Several values for one entry are separate records, joined by “and”; a condition that tells them apart may be missing. Identical values can stand only once.
How the values were obtained:
Type in all cases: in vivo, bottlenose dolphins (Tursiops truncatus)
[1] = Serum biochemical quantities, wild dolphins compared to Navy dolphins; details: wild (Sarasota Bay) over Navy dolphins
[2] = test system: Amyloid-β plaque density; experiment: Serum biochemical age-group ratio in dolphins with high vs low brain amyloid-β plaque density; details: for Serum biochemical quantity ratio, High density: high amyloid-β plaque density dolphins; for Serum biochemical quantity ratio, Low density: low amyloid-β plaque density dolphins
[3] = test system: Neuronal iron density; experiment: Serum biochemical age-group ratio in dolphins with high vs low neuronal iron density; details: for Serum biochemical quantity ratio, High density: high neuronal iron density dolphins; for Serum biochemical quantity ratio, Low density: low neuronal iron density dolphins
[4] = 15-to-25-year old over 3-to-15-year old
[5] = ^+26-35 years old:15-25 years old

Molecule | Serum biochemical quantity ratio, Ratio (wild dolphins compared to Navy dolphins) [1] | Serum biochemical quantity ratio, High density [2, 4] | Serum biochemical quantity ratio, Low density [2, 4] | further results
N[C@@H](CCC(=O)N[C@@H](Cc1c[nH]cn1)C(=O)O)C(=O)O [gamma-glutamylhistidine] | 0.87 |  |  | 
benzoylcarnitine | 2.14 | 0.55 | 1.21 | 
CN(CC(=O)O)C(=N)N [creatine] | 1.75 |  |  | 
CC(C)CC(=O)C(=O)O [4-methyl-2-oxopentanoate] | 1.22 |  |  | Serum biochemical quantity ratio, High density ([3]; *3-15 years old:0-2 years old): 0.68; Serum biochemical quantity ratio, Low density ([3]; *3-15 years old:0-2 years old): 1.42
triacylglycerol 52:2-FA20:0 | 7.47 |  |  | Serum biochemical quantity ratio, High density [2, 5]: 0.18; Serum biochemical quantity ratio, Low density [2, 5]: 1.34
triacylglycerol 56:4-FA22:4 | 9.19 |  |  | Serum biochemical quantity ratio, High density [2, 5]: 0.11; Serum biochemical quantity ratio, Low density [2, 5]: 0.75
triacylglycerol 58:7-FA22:4 | 1.47 |  |  | Serum biochemical quantity ratio, High density [2, 5]: 0.53; Serum biochemical quantity ratio, Low density [2, 5]: 0.91
triacylglycerol 52:1-FA20:0 | 9.47 |  |  | Serum biochemical quantity ratio, High density [2, 5]: 0.15; Serum biochemical quantity ratio, Low density [2, 5]: 1.19
triacylglycerol 58:5-FA18:1 | 2.57 |  |  | Serum biochemical quantity ratio, High density [2, 5]: 0.46; Serum biochemical quantity ratio, Low density [2, 5]: 1.02
CCCCCCCCCCCCC/C=C/[C@@H](O)[C@H](CO)NC(=O)CCCCCCCCCCCCC [CER (14:0), ceramide (CER) 14:0] | 1.06 |  |  | 
N[C@@H](Cc1ccc(OS(=O)(=O)O)cc1)C(=O)O [O-sulfo-L-tyrosine] | 2.14 |  |  | 
phosphatidylcholine (20:0/20:3) | 2.63 | 0.74 | 0.94 | 
NCC(CC[C@H](N)C(=O)O)OC1O[C@H](CO)[C@H](O)[C@H](O)[C@H]1O (stereo partly drawn) [5-(galactosylhydroxy)-L-lysine] | 0.90 |  |  | 
triacylglycerol 54:1-FA20:0 | 9.48 |  |  | Serum biochemical quantity ratio, High density [2, 5]: 0.16; Serum biochemical quantity ratio, Low density [2, 5]: 1.09
phosphatidylcholine (20:0/18:2) | 3.66 | 0.55 | 1.13 | 
O=C1CC[C@@H](C(=O)O)N1 [5-oxoproline] | 1.08 |  |  | Serum biochemical quantity ratio, High density [3, 4]: 0.76; Serum biochemical quantity ratio, Low density [3, 4]: 1.41
CC(C)C(=O)C(=O)O [3-methyl-2-oxobutyrate] | 1.2 |  |  | Serum biochemical quantity ratio, High density ([3]; *3-15 years old:0-2 years old): 0.66; Serum biochemical quantity ratio, Low density ([3]; *3-15 years old:0-2 years old): 1.86
O=C(O)/C=C\C(=O)O [maleate] | 1.06 |  |  | Serum biochemical quantity ratio, High density ([3]; *3-15 years old:0-2 years old): 0.88; Serum biochemical quantity ratio, Low density ([3]; *3-15 years old:0-2 years old): 1.74
N[C@@H](CC(O)C(=O)O)C(=O)O (stereo partly drawn) [4-hydroxyglutamate] | 4.78 |  |  | 
triacylglycerol 54:2-FA20:0 | 8.41 |  |  | Serum biochemical quantity ratio, High density [2, 5]: 0.17; Serum biochemical quantity ratio, Low density [2, 5]: 1.24
triacylglycerol 54:1-FA18:1 | 4.44 |  |  | Serum biochemical quantity ratio, High density [2, 5]: 0.40; Serum biochemical quantity ratio, Low density [2, 5]: 1.15
phosphatidylethanolamine (18:1/22:0) | 6.36 | 0.38 | 1.16 | 
CC(O)C(=O)O (stereo not drawn) [lactate] | 3.13 |  |  | Serum biochemical quantity ratio, High density [3, 4]: 0.62; Serum biochemical quantity ratio, Low density [3, 4]: 2.02
CC(=O)NCC(=O)O [N-acetylglycine] | 1.13 | 0.92 | 1.06 | 
CC(CO)C(=O)O (stereo not drawn) [3-hydroxyisobutyrate] | 1.82 |  |  | Serum biochemical quantity ratio, High density [3, 4]: 0.86; Serum biochemical quantity ratio, Low density [3, 4]: 1.67

Molecule | Serum biochemical quantity ratio, Ratio (wild dolphins compared to Navy dolphins) [1] | Serum biochemical quantity ratio, High density [2, 4] | Serum biochemical quantity ratio, Low density [2, 4] | further results
triacylglycerol 54:4-FA20:4 | 2.38 |  |  | Serum biochemical quantity ratio, High density [2, 5]: 0.48; Serum biochemical quantity ratio, Low density [2, 5]: 1.13
NC(=O)NCCC[C@H](NC(=O)CC[C@H](N)C(=O)O)C(=O)O [gamma-glutamylcitrulline] | 1.2 |  |  | 
O[C@H]1[C@H](O)[C@@H](O)[C@H](O)[C@@H](O)[C@H]1O [myo-inositol] | 1.53 |  |  | 
triacylglycerol 56:2-FA20:0 | 10.95 |  |  | Serum biochemical quantity ratio, High density [2, 5]: 0.13; Serum biochemical quantity ratio, Low density [2, 5]: 1.06
phosphatidylcholine (20:0/16:1) | 5.81 | 0.39 | 1.11 | 
triacylglycerol 58:6-FA22:4 | 2.47 |  |  | Serum biochemical quantity ratio, High density [2, 5]: 0.44; Serum biochemical quantity ratio, Low density [2, 5]: 0.91
Nc1ncnc2c1ncn2[C@@H]1O[C@H](CSCC[C@H](N)C(=O)O)[C@@H](O)[C@H]1O [S-adenosylhomocysteine (SAH), S-adenosylhomocysteine] | 1.3 |  |  | 
CC(=O)N[C@H](C(=O)O)[C@@H](C)O [N-acetylthreonine] | 1.93 |  |  | 
phosphatidylcholine (20:0/20:5) | 1.86 | 0.76 | 1.14 | 
CCC(C)C(=O)OC(CC(=O)[O-])C[N+](C)(C)C (stereo not drawn) [2-methylbutyrylcarnitine (C5)] | 1.68 | 0.49 | 1.06 | 
COc1cc(C(O)C(=O)O)ccc1O (stereo not drawn) [vanillylmandelate (VMA), vanillylmandelate] | 1.23 |  |  | 
phosphatidylcholine (20:0/18:1) | 7.04 | 0.33 | 1.02 | 
CC(N[C@H](C(=O)O)C(C)C)C(=O)O (stereo partly drawn) [1-carboxyethylvaline] | 5.4 | 0.60 | 1.32 | 
methylnaphthyl sulfate | 0.73 | 0.43 | 1.17 | 
phosphatidylethanolamine (P-18:0/22:2) [PE (P-18:0/22:2)] | 0.96 |  |  | 
CC(C)C[C@H](NC(C)C(=O)O)C(=O)O (stereo partly drawn) [1-carboxyethylleucine] | 6.54 | 0.29 | 1.28 | 
triacylglycerol 56:1-FA18:1 | 4.46 |  |  | Serum biochemical quantity ratio, High density [2, 5]: 0.35; Serum biochemical quantity ratio, Low density [2, 5]: 1.01
phosphatidylethanolamine (P-16:0/18:0) | 1.35 |  |  | Serum biochemical quantity ratio, High density ([2]; *3-15 years old:0-2 years old): 0.92; Serum biochemical quantity ratio, Low density ([2]; *3-15 years old:0-2 years old): 1.00
C[C@H](CCC(=O)O)[C@H]1CC[C@H]2[C@@H]3[C@H](O)C[C@@H]4C[C@H](O)CC[C@]4(C)[C@H]3CC[C@]12C [chenodeoxycholate] | 9.75 |  |  | 
O=C(O)CNC(=O)c1ccccc1 [hippurate] | 2.0 and 1.99 | 0.58 | 1.11 | 
C[C@H](CCC(=O)O)[C@H]1CC[C@H]2[C@@H]3[C@H](O)C[C@@H]4C[C@H](O)CC[C@]4(C)[C@H]3C[C@H](O)[C@]12C [cholate] | 4.51 |  |  | 
CC(=O)N[C@@H](C)C(=O)O [N-acetylalanine] | 2.31 | 0.76 | 1.09 | 
phosphatidylcholine (20:0/20:4) | 3.99 | 0.50 | 1.00 | 
O=c1[nH]c(=O)c2ncn([C@@H]3O[C@H](CO)[C@@H](O)[C@H]3O)c2[nH]1 [xanthosine] | 2.1 and 2.01 | 0.69 | 1.14 | 
N=C(N)NCCCC(=O)O [4-guanidinobutanoate] | 6.38 |  |  | 
